The target of one series is T1, OAT1 (Homo sapiens, UniProt Q4U2R8).
T1 sequence (Q4U2R8 1-563): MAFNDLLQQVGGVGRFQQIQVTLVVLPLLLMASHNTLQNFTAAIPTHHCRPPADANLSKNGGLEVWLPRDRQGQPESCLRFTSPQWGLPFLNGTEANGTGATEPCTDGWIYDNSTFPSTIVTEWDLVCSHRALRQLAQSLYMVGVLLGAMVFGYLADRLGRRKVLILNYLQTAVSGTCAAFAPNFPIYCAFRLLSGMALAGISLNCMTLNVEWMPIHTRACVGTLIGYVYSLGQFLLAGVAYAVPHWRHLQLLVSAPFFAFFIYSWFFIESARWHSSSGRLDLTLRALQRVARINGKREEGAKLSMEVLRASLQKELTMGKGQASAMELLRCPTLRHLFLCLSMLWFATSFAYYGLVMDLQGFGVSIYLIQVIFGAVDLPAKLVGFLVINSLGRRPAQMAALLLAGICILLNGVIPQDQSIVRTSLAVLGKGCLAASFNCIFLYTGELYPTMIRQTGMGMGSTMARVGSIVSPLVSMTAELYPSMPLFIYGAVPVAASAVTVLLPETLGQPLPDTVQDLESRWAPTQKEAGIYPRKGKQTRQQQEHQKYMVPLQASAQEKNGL
Briefly: OAT1-mediated fluorescein uptake inhibition assay in ciPTEC-OAT1.

For series [1] the following is noted: human; cited from earlier work.

Broadly, the IC50 is the concentration at which inhibition is half-maximal. Consider `NS(=O)(=O)c1cc(C(=O)O)c(NCc2ccco2)cc1Cl` [Furosemide, furosemide], for which the midpoint of inhibition at OAT1, the IC50, lay at 28.1 ± 9.1 µM. For the same compound, the “Renal CL” value in series [1] is recorded as 1.7 mL/min/kg.

The values above are taken from article PMC7354492, “Drugs Commonly Applied to Kidney Patients May Compromise Renal Tubular Uremic Toxins Excretion” (Toxins, 2020).
